# Data: the supplement of paper PMC12595434, “Development of retinoid nuclear receptor pathway antagonists through targeting aldehyde dehydrogenase 1A3” (iScience, 2025)
# Amino acid sequences for entries named in this document (tags omitted). A change or cut given only in a name is not applied to a line headed by its entry.
# UniProt Q8IWF2: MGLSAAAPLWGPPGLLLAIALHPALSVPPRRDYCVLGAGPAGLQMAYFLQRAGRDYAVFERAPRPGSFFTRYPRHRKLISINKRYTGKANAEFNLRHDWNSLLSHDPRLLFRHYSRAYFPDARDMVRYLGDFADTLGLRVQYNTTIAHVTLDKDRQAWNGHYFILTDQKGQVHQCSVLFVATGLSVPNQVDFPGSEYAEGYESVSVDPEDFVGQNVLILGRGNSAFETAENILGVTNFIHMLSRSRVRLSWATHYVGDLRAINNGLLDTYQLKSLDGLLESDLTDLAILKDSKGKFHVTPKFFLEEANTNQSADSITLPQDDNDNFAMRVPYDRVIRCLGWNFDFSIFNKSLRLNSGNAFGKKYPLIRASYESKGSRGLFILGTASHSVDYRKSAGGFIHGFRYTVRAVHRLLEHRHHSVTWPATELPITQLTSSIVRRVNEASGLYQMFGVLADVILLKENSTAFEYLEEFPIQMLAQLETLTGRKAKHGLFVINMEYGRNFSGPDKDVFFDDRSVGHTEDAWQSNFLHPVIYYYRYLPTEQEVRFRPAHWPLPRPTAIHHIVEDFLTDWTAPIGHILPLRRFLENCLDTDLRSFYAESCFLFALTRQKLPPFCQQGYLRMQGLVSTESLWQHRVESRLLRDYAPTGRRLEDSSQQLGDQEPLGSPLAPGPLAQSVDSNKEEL
# UniProt Q8N4N3: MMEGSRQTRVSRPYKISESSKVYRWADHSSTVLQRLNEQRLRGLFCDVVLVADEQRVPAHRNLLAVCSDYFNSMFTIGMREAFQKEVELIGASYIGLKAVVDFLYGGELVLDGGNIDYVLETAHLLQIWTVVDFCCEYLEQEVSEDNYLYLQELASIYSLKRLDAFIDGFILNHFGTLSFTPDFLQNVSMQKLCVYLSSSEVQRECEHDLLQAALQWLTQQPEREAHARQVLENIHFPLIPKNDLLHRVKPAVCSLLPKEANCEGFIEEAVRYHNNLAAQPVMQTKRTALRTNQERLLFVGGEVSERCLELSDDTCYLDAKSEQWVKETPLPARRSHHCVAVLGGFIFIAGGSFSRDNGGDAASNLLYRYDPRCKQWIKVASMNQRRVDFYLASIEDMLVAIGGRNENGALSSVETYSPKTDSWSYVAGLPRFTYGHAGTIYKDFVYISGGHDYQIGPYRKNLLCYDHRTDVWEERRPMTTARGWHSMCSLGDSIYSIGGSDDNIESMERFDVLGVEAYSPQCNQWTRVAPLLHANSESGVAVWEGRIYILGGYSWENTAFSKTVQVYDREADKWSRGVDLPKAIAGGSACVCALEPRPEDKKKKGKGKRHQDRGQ
# UniProt Q8N4X5: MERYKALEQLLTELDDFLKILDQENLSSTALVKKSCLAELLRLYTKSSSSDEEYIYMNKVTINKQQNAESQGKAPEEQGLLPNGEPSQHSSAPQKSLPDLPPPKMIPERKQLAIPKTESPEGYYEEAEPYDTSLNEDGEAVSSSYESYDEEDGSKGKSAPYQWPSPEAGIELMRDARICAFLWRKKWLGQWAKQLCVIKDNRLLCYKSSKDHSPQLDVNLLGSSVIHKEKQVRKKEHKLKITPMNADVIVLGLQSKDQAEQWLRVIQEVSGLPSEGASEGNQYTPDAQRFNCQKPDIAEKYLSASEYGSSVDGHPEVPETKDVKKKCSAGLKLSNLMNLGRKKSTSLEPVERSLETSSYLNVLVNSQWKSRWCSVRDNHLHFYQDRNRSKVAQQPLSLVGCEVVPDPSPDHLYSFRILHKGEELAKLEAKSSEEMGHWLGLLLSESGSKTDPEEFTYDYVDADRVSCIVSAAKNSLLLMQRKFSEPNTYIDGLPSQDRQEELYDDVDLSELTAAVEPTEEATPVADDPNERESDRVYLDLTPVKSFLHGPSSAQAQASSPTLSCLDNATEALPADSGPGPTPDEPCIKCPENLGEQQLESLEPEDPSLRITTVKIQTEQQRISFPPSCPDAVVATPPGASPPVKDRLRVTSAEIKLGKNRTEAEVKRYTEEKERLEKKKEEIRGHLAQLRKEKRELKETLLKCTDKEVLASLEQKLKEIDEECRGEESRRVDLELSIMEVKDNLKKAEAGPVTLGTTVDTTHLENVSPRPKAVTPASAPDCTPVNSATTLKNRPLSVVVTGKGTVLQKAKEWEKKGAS
# UniProt Q8IW92: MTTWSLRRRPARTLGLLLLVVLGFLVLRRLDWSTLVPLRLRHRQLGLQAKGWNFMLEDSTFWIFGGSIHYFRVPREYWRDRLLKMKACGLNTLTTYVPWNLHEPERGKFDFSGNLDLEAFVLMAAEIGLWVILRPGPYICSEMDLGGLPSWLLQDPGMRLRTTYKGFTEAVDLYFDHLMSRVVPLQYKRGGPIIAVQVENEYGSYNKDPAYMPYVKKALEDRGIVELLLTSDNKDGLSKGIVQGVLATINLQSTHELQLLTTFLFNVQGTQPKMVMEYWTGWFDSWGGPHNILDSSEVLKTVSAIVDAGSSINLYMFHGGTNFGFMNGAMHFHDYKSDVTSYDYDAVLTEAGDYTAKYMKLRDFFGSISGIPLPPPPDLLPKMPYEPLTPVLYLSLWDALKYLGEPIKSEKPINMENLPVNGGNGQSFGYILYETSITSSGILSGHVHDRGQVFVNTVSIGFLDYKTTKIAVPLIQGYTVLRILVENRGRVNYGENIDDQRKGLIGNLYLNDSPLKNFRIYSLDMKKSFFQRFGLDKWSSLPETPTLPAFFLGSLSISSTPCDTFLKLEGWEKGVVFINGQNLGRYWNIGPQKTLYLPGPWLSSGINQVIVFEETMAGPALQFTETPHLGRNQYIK
# UniProt Q8N5P1: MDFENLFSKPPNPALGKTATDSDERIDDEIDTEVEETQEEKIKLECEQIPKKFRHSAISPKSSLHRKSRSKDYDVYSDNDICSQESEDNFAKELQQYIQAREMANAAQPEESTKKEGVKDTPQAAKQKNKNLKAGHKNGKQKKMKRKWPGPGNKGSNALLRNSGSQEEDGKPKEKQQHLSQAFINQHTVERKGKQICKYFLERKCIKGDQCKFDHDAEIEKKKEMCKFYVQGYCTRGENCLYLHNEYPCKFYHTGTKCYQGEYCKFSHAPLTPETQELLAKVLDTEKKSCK
# UniProt Q8IWU2: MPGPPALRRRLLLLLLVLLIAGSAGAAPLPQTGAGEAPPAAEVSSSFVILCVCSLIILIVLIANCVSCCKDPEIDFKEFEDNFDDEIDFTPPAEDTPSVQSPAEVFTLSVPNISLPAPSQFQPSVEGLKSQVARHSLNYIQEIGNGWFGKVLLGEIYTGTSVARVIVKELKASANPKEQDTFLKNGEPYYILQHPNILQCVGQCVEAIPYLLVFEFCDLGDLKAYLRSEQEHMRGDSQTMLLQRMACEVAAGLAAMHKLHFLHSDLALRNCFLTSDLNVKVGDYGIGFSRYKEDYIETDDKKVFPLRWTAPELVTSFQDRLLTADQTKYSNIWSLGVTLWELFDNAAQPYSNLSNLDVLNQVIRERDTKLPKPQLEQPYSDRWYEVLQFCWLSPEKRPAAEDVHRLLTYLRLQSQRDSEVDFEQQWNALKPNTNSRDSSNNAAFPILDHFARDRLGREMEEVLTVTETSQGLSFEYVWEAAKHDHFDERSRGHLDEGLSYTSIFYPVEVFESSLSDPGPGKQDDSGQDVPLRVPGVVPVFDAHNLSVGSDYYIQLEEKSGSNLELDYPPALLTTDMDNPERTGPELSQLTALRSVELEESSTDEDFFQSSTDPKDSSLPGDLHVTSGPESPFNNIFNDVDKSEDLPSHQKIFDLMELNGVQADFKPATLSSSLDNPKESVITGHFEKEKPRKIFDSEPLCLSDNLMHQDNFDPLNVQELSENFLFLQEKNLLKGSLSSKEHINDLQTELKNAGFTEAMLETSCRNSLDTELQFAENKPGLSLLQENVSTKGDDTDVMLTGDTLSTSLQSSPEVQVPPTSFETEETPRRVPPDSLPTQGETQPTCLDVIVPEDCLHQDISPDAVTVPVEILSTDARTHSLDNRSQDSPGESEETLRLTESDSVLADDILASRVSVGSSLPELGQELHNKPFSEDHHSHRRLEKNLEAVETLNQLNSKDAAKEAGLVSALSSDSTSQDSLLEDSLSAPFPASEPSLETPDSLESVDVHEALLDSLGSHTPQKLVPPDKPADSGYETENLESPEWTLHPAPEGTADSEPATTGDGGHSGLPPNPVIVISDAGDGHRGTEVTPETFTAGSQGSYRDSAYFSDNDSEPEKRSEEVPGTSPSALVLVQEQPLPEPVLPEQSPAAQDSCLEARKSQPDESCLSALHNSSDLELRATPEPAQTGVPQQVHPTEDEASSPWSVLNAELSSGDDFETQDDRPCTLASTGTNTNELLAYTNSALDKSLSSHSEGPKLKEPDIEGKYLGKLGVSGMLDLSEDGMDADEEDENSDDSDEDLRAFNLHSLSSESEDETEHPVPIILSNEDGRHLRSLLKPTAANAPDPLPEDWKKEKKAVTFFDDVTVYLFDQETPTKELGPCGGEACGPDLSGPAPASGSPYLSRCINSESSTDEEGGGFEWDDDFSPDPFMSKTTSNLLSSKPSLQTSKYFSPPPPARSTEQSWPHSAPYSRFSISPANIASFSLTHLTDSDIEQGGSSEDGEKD
# UniProt Q8N4C8: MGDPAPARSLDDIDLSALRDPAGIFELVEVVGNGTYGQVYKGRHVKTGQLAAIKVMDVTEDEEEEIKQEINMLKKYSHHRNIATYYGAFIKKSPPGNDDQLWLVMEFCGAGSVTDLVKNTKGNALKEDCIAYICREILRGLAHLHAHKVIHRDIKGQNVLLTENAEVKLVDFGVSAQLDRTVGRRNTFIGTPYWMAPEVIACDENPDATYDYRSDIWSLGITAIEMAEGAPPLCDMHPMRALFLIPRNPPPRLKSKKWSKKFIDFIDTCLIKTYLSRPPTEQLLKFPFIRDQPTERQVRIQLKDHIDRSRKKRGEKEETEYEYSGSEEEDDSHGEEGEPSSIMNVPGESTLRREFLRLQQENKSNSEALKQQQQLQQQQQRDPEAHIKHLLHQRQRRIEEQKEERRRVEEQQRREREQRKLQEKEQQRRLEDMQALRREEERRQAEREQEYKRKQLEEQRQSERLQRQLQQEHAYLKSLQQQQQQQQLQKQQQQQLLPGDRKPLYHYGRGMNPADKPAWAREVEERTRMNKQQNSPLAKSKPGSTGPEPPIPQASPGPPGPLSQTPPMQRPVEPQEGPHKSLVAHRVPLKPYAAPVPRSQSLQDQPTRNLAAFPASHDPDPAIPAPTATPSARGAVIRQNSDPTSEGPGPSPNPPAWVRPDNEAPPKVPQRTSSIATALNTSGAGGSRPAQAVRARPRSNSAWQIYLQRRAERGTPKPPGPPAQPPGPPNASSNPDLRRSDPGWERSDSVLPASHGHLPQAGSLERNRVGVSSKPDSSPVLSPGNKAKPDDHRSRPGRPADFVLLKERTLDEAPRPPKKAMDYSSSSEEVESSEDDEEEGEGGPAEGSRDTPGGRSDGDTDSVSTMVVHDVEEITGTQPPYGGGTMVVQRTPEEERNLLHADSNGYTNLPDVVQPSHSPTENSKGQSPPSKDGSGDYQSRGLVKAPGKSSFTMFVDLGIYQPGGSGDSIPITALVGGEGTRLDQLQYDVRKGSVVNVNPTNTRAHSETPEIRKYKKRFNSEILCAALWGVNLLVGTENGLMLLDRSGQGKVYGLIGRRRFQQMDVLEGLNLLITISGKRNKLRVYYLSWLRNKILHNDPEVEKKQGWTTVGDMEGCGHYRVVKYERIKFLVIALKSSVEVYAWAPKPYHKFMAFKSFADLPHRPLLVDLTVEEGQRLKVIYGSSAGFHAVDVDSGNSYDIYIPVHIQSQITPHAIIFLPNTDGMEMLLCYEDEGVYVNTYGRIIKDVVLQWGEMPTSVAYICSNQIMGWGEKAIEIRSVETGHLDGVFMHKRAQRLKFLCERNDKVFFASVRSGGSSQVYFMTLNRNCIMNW
# UniProt Q8N5L8: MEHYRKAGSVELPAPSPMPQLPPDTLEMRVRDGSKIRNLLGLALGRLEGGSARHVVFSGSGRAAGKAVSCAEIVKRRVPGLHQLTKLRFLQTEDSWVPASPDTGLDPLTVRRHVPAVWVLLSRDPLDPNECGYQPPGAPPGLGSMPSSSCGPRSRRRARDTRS
# UniProt Q8IYU8: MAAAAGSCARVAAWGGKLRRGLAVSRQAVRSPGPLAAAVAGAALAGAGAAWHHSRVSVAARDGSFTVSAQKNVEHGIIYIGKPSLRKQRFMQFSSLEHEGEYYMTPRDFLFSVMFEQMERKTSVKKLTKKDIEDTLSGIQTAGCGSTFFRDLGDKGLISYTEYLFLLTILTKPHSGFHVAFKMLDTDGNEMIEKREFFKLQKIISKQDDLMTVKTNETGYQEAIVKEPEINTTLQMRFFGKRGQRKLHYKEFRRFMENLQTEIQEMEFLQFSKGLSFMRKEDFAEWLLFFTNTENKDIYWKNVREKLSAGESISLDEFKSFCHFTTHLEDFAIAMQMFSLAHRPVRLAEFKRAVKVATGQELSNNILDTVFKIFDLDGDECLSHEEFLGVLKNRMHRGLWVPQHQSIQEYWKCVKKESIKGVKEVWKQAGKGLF
# Some of the results follow. The data scatter; read single values as rough.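 Many melting curves are irregular; where none melted, Tm was taken as 64 °C.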
# Compound: CCc1cnccc1C(=O)Nc1cc2c(cc1F)NC(=O)CC2
# Test: melting temperature shift (DMSO Tm minus MBE1-treated Tm) in cellular thermal proteome profiling; higher = less thermal stabilization by MBE1 (negative = stabilized by MBE1)
# Details: A375
Target,melting temperature shift (MBE1 concentration: 100 nM),melting temperature shift (MBE1 concentration: 1 uM)
CHPF (UniProt Q8IZ52),1.5 °C,0.605 °C
ALDH16A1 (UniProt Q8IZ83),-0.49 °C,-1.67 °C
FOXRED2 (UniProt Q8IWF2),-0.389 °C,-0.0537 °C
THNSL1 (UniProt Q8IYQ7),-0.0805 °C,0.153 °C
UniProt Q8N4N3,-1.45 °C,-0.39 °C
UniProt Q8N4X5,0.495 °C,0.397 °C
UniProt Q8IXS2,-2.18 °C,3.87 °C
HPS6 (UniProt Q86YV9),-0.79 °C,-0.494 °C
UniProt Q8IW92,-2.41 °C,-0.527 °C
UniProt Q8N2F6,0.968 °C,-0.195 °C
UniProt Q8N1G0,-0.601 °C,-0.545 °C
ERC1 (UniProt Q8IUD2),-1.39 °C,-0.409 °C
ZC3H8 (UniProt Q8N5P1),-1.32 °C,-2.17 °C
TMEM57 (UniProt Q8N5G2),-1.17 °C,0.418 °C
LMTK2 (UniProt Q8IWU2),-0.657 °C,0.58 °C
Q8IXS6 (UniProt Q9Y2D5),-1.6 °C,0.821 °C
DNAJC10 (UniProt Q8IXB1),-1.47 °C,-0.114 °C
ASCC3 (UniProt Q8N3C0),-0.57 °C,-0.545 °C
MINK1 (UniProt Q8N4C8),0.256 °C,0.672 °C
UniProt Q8IX01,-0.154 °C,-0.314 °C
PTGR2 (UniProt Q8N8N7),0.55 °C,2.28 °C
RPP25L (UniProt Q8N5L8),-4.78 °C,-5.24 °C
PNPLA6 (UniProt Q8IY17),-0.561 °C,0.495 °C
UniProt Q8N0Y2,-4.05 °C,-0.751 °C
MICU2 (UniProt Q8IYU8),-0.413 °C,0.324 °C
ANKLE2 (UniProt Q86XL3),-1.5 °C,-1.13 °C

# Seven entries from above, bar-delimited:
Target | melting temperature shift (MBE1 concentration: 100 nM) | melting temperature shift (MBE1 concentration: 1 uM)
THNSL1 (UniProt Q8IYQ7) | -0.0805 °C | 0.153 °C
UniProt Q8N1G0 | -0.601 °C | -0.545 °C
ASCC3 (UniProt Q8N3C0) | -0.57 °C | -0.545 °C
PTGR2 (UniProt Q8N8N7) | 0.55 °C | 2.28 °C
UniProt Q8N0Y2 | -4.05 °C | -0.751 °C
MICU2 (UniProt Q8IYU8) | -0.413 °C | 0.324 °C
ANKLE2 (UniProt Q86XL3) | -1.5 °C | -1.13 °C
